Key:
[1] = test system: Pseudomonas aeruginosa PA01 (ciprofloxacin-susceptible) and PA262 (ciprofloxacin-resistant); settings: 1 mM, 25 minutes at 37° C.
Method: (§1) DPV measurements of 1 mM Cip were taken and after incubation, centrifugation was performed at 4000 rpm for 10 min and the supernatant was collected.

[2] = Control drug solution without bacterial cells incubated at 37° C., DPV; settings: 1 mM in PBS, 25 minutes at 37° C.
Method: as §1
Similarly uptake of Tobramycin (2 mM), was analyzed in Pseudomonas aeruginosa also using DPV. The control solutions were tested before and after incubation at 37° C. and with different incubation times at 37° C. (i.e. 15 minutes; 30 minutes and 60 minutes). […] Integration underneath the curves provides the charge. This charge is proportional to the number of molecules transferred during DPV recordings (see FIGS. 11-14).

O=C(O)c1cn(C2CC2)c2cc(N3CCNCC3)c(F)cc2c1=O [ciprofloxacin]
DPV current signal of supernatant compared to controls (uptake by the bacteria) [1]: lower current signal
difference in uptake between PA01 and PA262 strains [1]: No statistically significant difference
stability of ciprofloxacin in solution [2]: does not lead to a degradation of ciprofloxacin in solution

From patent US20230052517A1, “ELECTROCHEMICAL SENSING METHODS AND APPARATUS FOR DETERMINING DRUG UPTAKE AND RETENTION IN CELLS” (priority 2020, published 2023)
